Experimental data taken from PMC4341237.

Target: GFP-tagged EMC1 protein (EMC1::GFP) (Drosophila)
Assay: co-IP; CHAPS extract of adult head membrane fraction (50 mM Tris-Cl, 500 mM NaCl, pH 7.5) bound to anti-GFP magnetic beads for 18 hr, rinsed with 0.1% CHAPS, eluates immunoblotted for GFP, Rh1, dPob and Cnx; Rh1-Gal4 driver with flies reared in vitamin A-deficient medium, or hs-Gal4 driver with flies in normal medium; sec61::GFP as negative control

binding: no binding
B1: rhodopsin 1 (Rh1) apoprotein, immature form (receptor, UniProt P06002 1-373)
chain: MESFAVAAAQLGPHFAPLSNGSVVDKVTPDMAHLISPYWNQFPAMDPIWAKILTAYMIMIGMISWCGNGVVIYIFATTKSLRTPANLLVINLAISDFGIMITNTPMMGINLYFETWVLGPMMCDIYAGLGSAFGCSSIWSMCMISLDRYQVIVKGMAGRPMTIPLALGKIAYIWFMSSIWCLAPAFGWSRYVPEGNLTSCGIDYLERDWNPRSYLIFYSIFVYYIPLFLICYSYWFIIAAVSAHEKAMREQAKKMNVKSLRSSEDAEKSAEGKLAKVALVTITLWFMAWTPYLVINCMGLFKFEGLTPLNTIWGACFAKSAACYNPIVYGISHPKYRLALKEKCPCCVFGKVDDGKSSDAQSQATASEAESKA
modifications: N-glycosylated immature form

These are yes or no findings as the source states them, for the method shown. In cells and extracts the contact can be indirect.
